In article PMC5805373:
Results are given in words; binding and its absence hold for the method and conditions named. Binding seen in cells or lysates may run through a third protein. Some binding calls cover weakened binding; strength is not graded here.

The chains behind the UniProt entries cited, without tags or fusion partners.
UniProt P23813: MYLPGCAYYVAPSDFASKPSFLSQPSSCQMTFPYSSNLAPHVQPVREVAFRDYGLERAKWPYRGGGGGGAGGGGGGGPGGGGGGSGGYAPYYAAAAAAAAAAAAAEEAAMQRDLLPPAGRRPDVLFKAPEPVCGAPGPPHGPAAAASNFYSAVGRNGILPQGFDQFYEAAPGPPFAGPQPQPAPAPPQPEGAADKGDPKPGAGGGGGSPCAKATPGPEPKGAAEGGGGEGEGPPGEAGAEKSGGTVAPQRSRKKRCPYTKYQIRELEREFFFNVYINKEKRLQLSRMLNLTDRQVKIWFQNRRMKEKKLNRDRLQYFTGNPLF
UniProt P22561: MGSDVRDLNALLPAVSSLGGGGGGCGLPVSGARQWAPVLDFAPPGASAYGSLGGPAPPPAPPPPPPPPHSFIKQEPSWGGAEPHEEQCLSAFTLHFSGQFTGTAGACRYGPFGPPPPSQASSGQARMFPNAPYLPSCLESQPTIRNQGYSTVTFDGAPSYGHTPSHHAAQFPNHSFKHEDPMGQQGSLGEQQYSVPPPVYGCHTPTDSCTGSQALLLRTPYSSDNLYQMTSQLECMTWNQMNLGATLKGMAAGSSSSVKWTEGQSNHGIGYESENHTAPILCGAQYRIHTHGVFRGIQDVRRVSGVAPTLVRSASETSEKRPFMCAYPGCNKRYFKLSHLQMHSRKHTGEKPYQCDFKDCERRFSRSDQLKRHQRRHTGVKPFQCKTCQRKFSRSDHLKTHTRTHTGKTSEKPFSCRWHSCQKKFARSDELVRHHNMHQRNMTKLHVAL

T1: Six2 (mouse (endogenous in E16.5 kidney)) (UniProt Q62232)
T1 sequence: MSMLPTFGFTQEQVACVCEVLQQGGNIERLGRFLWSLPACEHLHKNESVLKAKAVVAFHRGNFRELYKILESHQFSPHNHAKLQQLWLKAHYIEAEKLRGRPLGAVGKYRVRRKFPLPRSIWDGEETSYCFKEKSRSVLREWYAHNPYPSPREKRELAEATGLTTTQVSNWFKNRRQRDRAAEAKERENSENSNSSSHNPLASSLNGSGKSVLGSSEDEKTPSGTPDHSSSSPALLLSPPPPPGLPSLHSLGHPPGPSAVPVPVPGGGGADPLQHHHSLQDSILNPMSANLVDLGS

B1: Sall1 (protein, UniProt Q9ER74 1-1322)
chain: MSRRKQAKPQHFQSDPEVASLPRRDGDTEKGQPSRPTKSKDAHVCGRCCAEFFELSDLLLHKKSCTKNQLVLIVNESPASPAKTFPPGPSLNDPDDQMKDAANKADQEDCSDLSEPKGLDREESMEVEVPVATTTTTTTGGSGGSGGSTLSGVTNITTPSCHSGCSSGTSAITTSLPQLGDLTTLGNFSVINSNVIIENLQSTKVAVAQFSQEARCGGASGGKLLISTLMEQLLALQQQQIHQLQLIEQIRHQILLLASQSADLPAAPSIPSQGTLRTSANPLTTLSSHLSQQLAVAAGLAQSLASQSANISGVKQLPHVQLPQSSSGTSIVPPSGGTSPNMSIVTAAVPTPSSEKVASNAGASHVSSPAVSASSSPAFAISSLLSPESNPLLPQPTPANAVFPTPLPNIATTAEDLNSLSALAQQRKSKPPNVTAFEAKSTSDEAFFKHKCRFCAKVFGSDSALQIHLRSHTGERPFKCNICGNRFSTKGNLKVHFQRHKEKYPHIQMNPYPVPEHLDNVPTSTGIPYGMSIPSEKPVTSWLDTKPVLPTLTTSVGLPLPPTLPSLTPFIKTEEPAPIPISHSAASPQGSVKSDSGAPDLATRNPSGVPEEVEGSAVPPFGGKGEESNMASSAVPTAGNSTLNSPVADGGPGGTTFTNPLLPLMSEQFKAKFPFGGLLDSAQASETSKLQQLVENIDKKATDPNECIICHRVLSCQSALKMHYRTHTGERPFKCKICGRAFTTKGNLKTHYSVHRAMPPLRVQHSCPICQKKFTNAVVLQQHIRMHMGGQIPNTPVPDNYPESMESDTGSFDEKNFDDLDNFSDENMEECPEGSIPDTPKSADASQDSLSSSPLPLEMSSIAALENQMKMINAGLAEQLQASLKSVENGSMEGDVLTNDSSSVGGDMESQSAGSPAISESTSSMQALSPSNSTQEFHKSPGMEEKPQRVGPGEFANGLSPTPVNGGALDLTSSHAEKIIKEDSLGILFPFRDRGKFKNTACDICGKTFACQSALDIHYRSHTKERPFICTVCNRGFSTKGNLKQHMLTHQMRDLPSQLFEPSSNLGPNQNSAVIPANSLSSLIKTEVNGFVHVSPQDSKDAPTSHVPQGPLSSSATSPVLLPALPRRTPKQHYCNTCGKTFSSSSALQIHERTHTGEKPFACTICGRAFTTKGNLKVHMGTHMWNSTPARRGRRLSVDGPMTFLGGNPVKFPEMFQKDLAARSGSGDPSSFWNQYTAALSNGLAMKANEISVIQNGGIPPIPGSLGSGSSPISGLTGNVEKLGNSEPSAPLAGLEKMASSENGTNFRFTRFVEDSKEIVTS

The molecules below were run against T1, Six2 (mouse (endogenous in E16.5 kidney)) (assay: co-IP; Six2 antibody (or normal rabbit IgG) crosslinked to Dynabeads Protein G; nuclear extracts of E16.5 whole mouse kidneys incubated overnight with beads at 4°C; washed 5x with TBS+0.1% Triton X-100; eluted with 0.1M Glycine-HCl, pH 2.9; Western blot).
For Hoxd11 (from UniProt P23813 1-323), the binding was “binds”.
In the case of Wt1 (from UniProt P22561 1-449), the binding is reported as “binds”.
For B1, the binding was “no binding”.
